Results deposited as PubChem BioAssay AID1259308 (NCATS, 2017)
Aim: 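Genes whose loss raises luciferase production in HEK293 cells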 (primary screen). Cell system: human HEK293 embryonic kidney cells stably expressing firefly luciferase (HEK-CMV-Luc2-Hygro). Reagent: single siRNA against human genes, 0.8 pmol siRNA per well. Duration: 72 h. Detection: 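Luciferase light (ONE-Glo) measured on one replicate plate set and viability (CellTiter-Glo) on the other, scaled to a negative control siRNA, with robust z-scores and luciferase per cell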. Direction: total luciferase, z-score and total luciferase, % of control: higher = more reporter protein produced; luciferase per cell, z-score: higher = more reporter output per viable cell; viable cells, % of control: higher = more viable cells. Rule for the call: 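Active when the median/MAD z-score for overall luciferase is greater than 3; a gene was taken forward for validation with new siRNAs if at least two of its three siRNAs passed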. Meaning of the calls: active = raised luciferase; inactive = no rise.
This is a random part of about 59,000 deposited reagents. Of all reagents, about 1,510 (2.6%) got an active call. 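Calls use total luciferase alone and ignore viability, so some active siRNAs may act by altering cell number.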

total luciferase, z-score | total luciferase, % of control | luciferase per cell, z-score | viable cells, % of control | Outcome | target | PubChem SID
0.328 | 88.4 | -0.0942 | 101 | inactive | TENM4 (teneurin transmembrane protein 4) | SID160737447
-0.473 | 72.5 | -0.232 | 86.1 | inactive | TENM4 (teneurin transmembrane protein 4) | SID160737448
2.37 | 129 | 3.2 | 62.1 | inactive | TENM4 (teneurin transmembrane protein 4) | SID160737450
0.276 | 87.4 | 0.257 | 91.3 | inactive | EEF1G (eukaryotic translation elongation factor 1 gamma) | SID160758385
-0.612 | 69.7 | -0.907 | 98.9 | inactive | EEF1G (eukaryotic translation elongation factor 1 gamma) | SID160758395
1.41 | 110 | 1.2 | 89.5 | inactive | EEF1G (eukaryotic translation elongation factor 1 gamma) | SID160758406
2.5 | 132 | 2.48 | 76.5 | inactive | FZD7 (frizzled class receptor 7) | SID160719863
1.28 | 107 | 1.25 | 86.3 | inactive | FZD7 (frizzled class receptor 7) | SID160719864
0.082 | 83.5 | -0.434 | 105 | inactive | FZD7 (frizzled class receptor 7) | SID160719865
2.25 | 127 | 1.38 | 98.2 | inactive | STAB1 (stabilin 1) | SID160735603
1.59 | 114 | 0.882 | 101 | inactive | STAB1 (stabilin 1) | SID160735604
3.05 | 143 | 1.91 | 96.4 | active | STAB1 (stabilin 1) | SID160735606

Records above whose target name begins with T or t (3):
total luciferase, z-score | total luciferase, % of control | luciferase per cell, z-score | viable cells, % of control | Outcome | target | PubChem SID
0.328 | 88.4 | -0.0942 | 101 | inactive | TENM4 (teneurin transmembrane protein 4) | SID160737447
-0.473 | 72.5 | -0.232 | 86.1 | inactive | TENM4 (teneurin transmembrane protein 4) | SID160737448
2.37 | 129 | 3.2 | 62.1 | inactive | TENM4 (teneurin transmembrane protein 4) | SID160737450

The listing continues:
total luciferase, z-score | total luciferase, % of control | luciferase per cell, z-score | viable cells, % of control | Outcome | target | PubChem SID
2.27 | 127 | 2.4 | 75.4 | inactive | CDRT15L2 (CMT1A duplicated region transcript 15 like 2) | SID160762412
0.0058 | 82 | -0.343 | 100 | inactive | CDRT15L2 (CMT1A duplicated region transcript 15 like 2) | SID160762413
-0.277 | 76.4 | -0.0926 | 87.4 | inactive | CDRT15L2 (CMT1A duplicated region transcript 15 like 2) | SID160762414
-1.87 | 44.7 | -2.48 | 96 | inactive | USP27X (ubiquitin specific peptidase 27 X-linked) | SID160766300
-0.81 | 65.8 | -0.455 | 82.8 | inactive | USP27X (ubiquitin specific peptidase 27 X-linked) | SID160766301
0.602 | 93.9 | -0.314 | 114 | inactive | USP27X (ubiquitin specific peptidase 27 X-linked) | SID160766302
0.0457 | 82.8 | 0.0932 | 90.3 | inactive | SLC26A3 | SID160756221
0.698 | 95.8 | 0.655 | 90.1 | inactive | SLC26A3 | SID160756232
-0.837 | 65.2 | -1.01 | 95.2 | inactive | SLC26A3 | SID160756243
-1.11 | 59.7 | -1.56 | 101 | inactive | VWA5A (von Willebrand factor A domain containing 5A) | SID160776687
-1.46 | 52.8 | -1.06 | 78 | inactive | VWA5A (von Willebrand factor A domain containing 5A) | SID160776688
-0.304 | 75.8 | 0.0805 | 83 | inactive | VWA5A (von Willebrand factor A domain containing 5A) | SID160776690
